Measured values reported in article PMC5356707.
No constants are given. Whether binding was seen depends on the method and setting. In cells and extracts the contact can be indirect. Some entries that bind do so weakly or less than the wild type.

The chains behind the UniProt entries cited, without tags or fusion partners.
UniProt Q15910: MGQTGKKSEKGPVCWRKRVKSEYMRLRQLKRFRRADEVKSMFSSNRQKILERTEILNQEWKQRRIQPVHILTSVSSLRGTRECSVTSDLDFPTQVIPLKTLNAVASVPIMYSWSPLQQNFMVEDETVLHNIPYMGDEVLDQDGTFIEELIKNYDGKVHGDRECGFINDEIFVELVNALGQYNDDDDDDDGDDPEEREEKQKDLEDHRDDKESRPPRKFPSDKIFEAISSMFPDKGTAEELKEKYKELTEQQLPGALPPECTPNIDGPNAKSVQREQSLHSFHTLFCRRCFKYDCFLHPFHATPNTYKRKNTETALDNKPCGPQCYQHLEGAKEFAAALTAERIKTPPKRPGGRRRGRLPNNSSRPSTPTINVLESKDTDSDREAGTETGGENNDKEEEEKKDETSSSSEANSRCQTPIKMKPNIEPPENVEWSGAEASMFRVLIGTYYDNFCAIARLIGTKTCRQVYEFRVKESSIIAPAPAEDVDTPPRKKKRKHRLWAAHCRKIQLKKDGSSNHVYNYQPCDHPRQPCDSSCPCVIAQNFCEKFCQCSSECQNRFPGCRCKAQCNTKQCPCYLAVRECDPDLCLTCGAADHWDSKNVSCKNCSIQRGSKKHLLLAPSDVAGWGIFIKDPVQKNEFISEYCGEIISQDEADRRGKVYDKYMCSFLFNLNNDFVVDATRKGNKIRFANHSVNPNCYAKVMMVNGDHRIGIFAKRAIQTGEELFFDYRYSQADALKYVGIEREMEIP
UniProt O75362: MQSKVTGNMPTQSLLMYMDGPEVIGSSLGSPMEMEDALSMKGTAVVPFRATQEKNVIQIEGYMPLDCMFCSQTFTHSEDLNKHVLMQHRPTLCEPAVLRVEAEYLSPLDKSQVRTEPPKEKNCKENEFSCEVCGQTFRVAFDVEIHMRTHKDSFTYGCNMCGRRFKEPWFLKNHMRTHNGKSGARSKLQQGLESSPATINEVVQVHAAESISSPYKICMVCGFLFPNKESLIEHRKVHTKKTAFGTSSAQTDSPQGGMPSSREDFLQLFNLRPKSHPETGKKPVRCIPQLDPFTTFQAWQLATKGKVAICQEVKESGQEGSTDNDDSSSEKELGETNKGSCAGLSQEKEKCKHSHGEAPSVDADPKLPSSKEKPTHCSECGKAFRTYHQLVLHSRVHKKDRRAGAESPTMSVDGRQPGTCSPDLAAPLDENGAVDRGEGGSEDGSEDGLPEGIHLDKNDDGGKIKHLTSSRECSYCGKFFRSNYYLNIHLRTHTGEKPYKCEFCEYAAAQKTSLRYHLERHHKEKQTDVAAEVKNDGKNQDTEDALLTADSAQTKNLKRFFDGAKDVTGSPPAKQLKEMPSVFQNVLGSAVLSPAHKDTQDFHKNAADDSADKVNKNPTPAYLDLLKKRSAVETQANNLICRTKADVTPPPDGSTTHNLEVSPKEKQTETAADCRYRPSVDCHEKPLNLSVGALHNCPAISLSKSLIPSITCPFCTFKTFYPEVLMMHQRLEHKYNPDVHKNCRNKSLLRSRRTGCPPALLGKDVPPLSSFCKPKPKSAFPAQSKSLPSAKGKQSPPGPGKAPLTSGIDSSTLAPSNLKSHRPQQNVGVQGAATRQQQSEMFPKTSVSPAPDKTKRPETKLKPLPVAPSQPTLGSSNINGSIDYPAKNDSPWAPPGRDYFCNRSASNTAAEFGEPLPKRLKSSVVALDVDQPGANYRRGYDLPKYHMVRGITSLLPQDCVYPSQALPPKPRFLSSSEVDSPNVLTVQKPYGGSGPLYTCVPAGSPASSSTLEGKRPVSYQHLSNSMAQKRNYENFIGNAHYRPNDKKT

Target: EZH2 (human (endogenous in human PCa cell lines PC3 or LNCaP)) (UniProt Q15910)
Experiment: co-IP; endogenous proteins; Pierce Co-IP kit; cells lysed in IP lysis buffer, lysates sonicated, pre-cleared with protein A agarose 1 h at 4°C, antibodies (anti-ZNF217, anti-EZH2, H3K27me3) overnight at 4°C; western blot; cell line not stated

binding: binds
Substance: Zinc-figure protein 217 (ZNF217) (from UniProt O75362 1-1048)
